Assay in all cases: inhibition of the protein
Data set [1] has as its target EGF receptor (EGFR) (UniProt P00533). Conditions: PS, two linkages at each of 5' and 3' ends, rest phosphodiester; autophosphorylation, 30 C; purified native protein; protein details: immunoprecipitated from A431 cells with clone LA1; single-stranded DNA.
The target in data set [2] is LCK tyrosine kinase (Homo sapiens) (UniProt P06239). The settings on record: PS, two linkages at each of 5' and 3' ends, rest phosphodiester; purified native protein; single-stranded DNA.
The target of data set [3] is SRC tyrosine kinase (c-Src) (UniProt P12931). The settings on record: PS, two linkages at each of 5' and 3' ends, rest phosphodiester; enolase as substrate; purified native protein; protein details: immunoprecipitated from K562 cells; single-stranded DNA.
Data set [4] addresses cdc-2 kinase (UniProt P06493). Conditions: PS, two linkages at each of 5' and 3' ends, rest phosphodiester; casein substrate; purified native protein; protein details: immunoprecipitated from K562 cells; single-stranded DNA.

Chains of the proteins cited; added tags and fusions are not shown. Residues count along the entry.
UniProt P06239, 2-509: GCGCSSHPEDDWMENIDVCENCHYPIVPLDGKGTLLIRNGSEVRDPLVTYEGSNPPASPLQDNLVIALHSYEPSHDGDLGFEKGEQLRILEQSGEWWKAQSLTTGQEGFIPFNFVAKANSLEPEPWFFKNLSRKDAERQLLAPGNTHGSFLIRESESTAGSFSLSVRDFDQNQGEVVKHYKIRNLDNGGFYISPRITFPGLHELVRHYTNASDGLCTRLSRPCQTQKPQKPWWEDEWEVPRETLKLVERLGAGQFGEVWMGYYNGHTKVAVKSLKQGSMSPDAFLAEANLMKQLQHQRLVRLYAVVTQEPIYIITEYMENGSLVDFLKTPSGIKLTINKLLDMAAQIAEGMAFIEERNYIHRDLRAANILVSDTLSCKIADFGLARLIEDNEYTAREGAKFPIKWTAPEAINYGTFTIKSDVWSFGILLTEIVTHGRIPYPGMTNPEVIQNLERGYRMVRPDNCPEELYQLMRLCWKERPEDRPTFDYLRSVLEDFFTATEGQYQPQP

As to “GTCCACCATGGCGCGGCCGGC [ODN1 (BCR-AS), phosphorothioate capped]”, the half-inhibitory concentration (IC50) (in general, the midpoint of a concentration-inhibition curve) in data set [1] was greater than 100 µM; in data set [2] it was greater than 50 µM; in data set [3], greater than 100 µM; in data set [4] it was greater than 50 µM.

Values taken from patent US5998596.
